# From PubChem BioAssay AID1347422 (Sanford-Burnham Center for Chemical Genomics, 2020)
# The chains behind the UniProt entries cited, without tags or fusion partners. Where a name states a change or a piece, a line headed by the entry shows the natural chain unless it says otherwise.
# UniProt O00391: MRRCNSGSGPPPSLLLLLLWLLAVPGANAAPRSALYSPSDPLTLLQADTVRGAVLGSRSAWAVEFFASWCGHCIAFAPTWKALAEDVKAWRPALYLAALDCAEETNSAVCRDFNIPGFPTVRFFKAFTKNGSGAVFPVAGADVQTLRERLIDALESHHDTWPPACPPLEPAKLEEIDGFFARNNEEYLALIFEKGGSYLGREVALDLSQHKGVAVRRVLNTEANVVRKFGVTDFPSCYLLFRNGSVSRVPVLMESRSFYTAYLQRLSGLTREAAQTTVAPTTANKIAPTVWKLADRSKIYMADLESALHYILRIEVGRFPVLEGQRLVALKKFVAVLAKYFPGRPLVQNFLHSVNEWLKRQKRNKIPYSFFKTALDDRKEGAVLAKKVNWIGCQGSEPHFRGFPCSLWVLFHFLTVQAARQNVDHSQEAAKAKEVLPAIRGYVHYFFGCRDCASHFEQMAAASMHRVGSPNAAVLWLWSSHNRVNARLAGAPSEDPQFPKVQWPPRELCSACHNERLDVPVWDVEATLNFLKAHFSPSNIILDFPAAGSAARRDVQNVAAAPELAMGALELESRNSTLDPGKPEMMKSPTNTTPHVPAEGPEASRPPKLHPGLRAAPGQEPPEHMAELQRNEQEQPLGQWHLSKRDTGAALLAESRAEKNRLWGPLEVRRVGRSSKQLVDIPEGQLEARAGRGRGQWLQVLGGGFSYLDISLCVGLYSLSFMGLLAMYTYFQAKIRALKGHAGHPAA
# Over roughly 1,000 compounds, “thermal shift dTm” has its median near 0.19; the highest 2% begin near 1.7. The list shows a part of the results. Calls of active or inactive are those of the source.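 The calls were made as follows: active = mean rise in melting temperature of at least 1 degC over same-plate control wells; inactive = below that, where a call was filed.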
# Biological target: Sulfhydryl oxidase 1 (Homo sapiens) (UniProt O00391)
# Assay: QSOX1 binders by thermal stabilization, confirmation, QSOX1 inhibitor project, biophysical, protein thermal shift, single concentration (AID 1347422);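 also: dTm is compound Tm minus mean Tm of DMSO-only wells on that plate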
# Conditions: recombinant hQSOX1 thermal shift, Sypro Orange, at 25 µM, stronger effect = higher value
row,SMILES,thermal shift dTm
1,CN(C)c1ccc(-c2cc(C(N)=O)ccn2)cc1,0.93 °C
2,CCOc1ccc(N/C(N)=N/c2nc(-c3cccs3)cc(C(F)(F)F)n2)cc1,inactive: -0.16 °C
3,Oc1ccc(Br)cc1-c1nc2ccc3ccccc3c2c2c1CCCC2,0.15 °C
4,CC(C)C(=O)Nc1cccc(NC(=O)Nc2ccccc2)c1,active: 1.68 °C
5,CCOc1ccc(NC(=S)Nc2ccc(C(N)=O)cc2)cc1,inactive: -0.03 °C
6,COC(=O)c1ccc(Nc2nnc(-c3ccc(O)cc3)c3ccccc23)cc1,0.3 °C
7,O=C(Nc1ccc(-n2cc(Br)cn2)cc1)c1cccnc1,0.23 °C
8,CCC(=O)Nc1ccc(NC(=O)CCc2ccccc2Cl)cc1,0.41 °C
9,COc1ccc(NC(=O)CSCc2ccccc2C)cc1Cl,0.02 °C
10,Cc1ccc(-c2nn(-c3cccc(F)c3)cc2CN2CCN(CCO)CC2)o1,0.09 °C
11,O=C(Nc1nnc(C2CC2)s1)c1ccc(NC(=O)c2ccco2)cc1,0.55 °C
12,O=C(/C=C/c1ccc(F)cc1)NCCc1nc2ccccc2[nH]1,0.44 °C
13,CC(C(=O)Nc1nc2ccccc2s1)N1CCN(c2ccccc2F)CC1 (stereo not drawn),0.11 °C
14,COc1ccc(-c2nnc(NC(=O)C(C)Oc3cccc(Cl)c3)s2)cc1 (stereo not drawn),0.11 °C
15,COc1ccc(NC(=O)CSc2c(-c3ccccc3)c3cc(Cl)ccc3[nH]c2=O)cc1,0.63 °C
16,COc1ccc(C(NC(=O)Cc2ccc3c(c2)CCCC3)c2ccccc2)cc1 (stereo not drawn),0.21 °C
17,O=C(Nc1ccc2c(c1)OCCO2)c1cc(Br)cs1,0.04 °C
18,Cc1c(C(=O)N2CCC[C@H]2CO)sc2ncnc(NCCc3c[nH]c4ccccc34)c12,inactive: -0.04 °C
19,O=C(Nc1ccccc1C(=O)O)c1cccc(S(=O)(=O)Nc2ccccc2)c1,active: 1.23 °C
20,O=C(Nc1ccccc1Cl)NC12CC3CC(CC(C3)C1)C2,inactive: -0.13 °C
21,Cc1ccc2oc(C(=O)Nc3ccc(S(=O)(=O)Nc4nccs4)cc3)c(C)c2c1,0.75 °C
22,O=C(c1cccc(Cl)c1)C1CCCN(S(=O)(=O)c2cccs2)C1 (stereo not drawn),0.14 °C
23,CC(C)(C)c1ccc(-c2noc(CNC(=O)C3CCCCC3)n2)cc1,0.11 °C

row,SMILES,thermal shift dTm
1,Cc1ccc(NS(=O)(=O)c2cccc(C(=O)Nc3ccccc3C(=O)O)c2)cc1,active: 1.46 °C
2,CC(NC(=O)N1c2ccccc2Sc2ccccc21)c1ccccc1 (stereo not drawn),inactive: -0.03 °C
3,O=C(Nc1cccnc1)c1ccc(-c2cccc(-c3ccn[nH]3)c2)o1,0.7 °C
4,CCOc1ccc(CN2CCNC(=O)C2CC(=O)NCc2cc(OC)cc(OC)c2)cc1 (stereo not drawn),0.18 °C
5,Cc1cccc(Nc2nc3ccc(C)cc3n3cnnc23)c1,0.19 °C
6,O=C(Nc1ccc(F)cc1)N1CCC(n2cc(Cc3ccccc3)nn2)CC1,0.28 °C
7,Cc1cccc(NC(=O)Nc2nc(C)cs2)c1,inactive: -0.13 °C
8,Cc1cc(C)cc(-n2ncc3c2CCCC3NC(=O)CN2CCCCC2=O)c1 (stereo not drawn),0.05 °C
9,CCc1nnc(NC(=O)c2nnn(-c3ccc(C)cc3)c2N)s1,0.7 °C
10,O=C(COC(=O)c1c2c(nc3ccccc13)CCCC2)Nc1cccc(C(F)(F)F)c1,0.02 °C
11,CCc1ccc(NC(=O)c2ccc(N(C)S(C)(=O)=O)cc2)cc1,0.18 °C
12,CC(C)CCOc1ccc(-c2cc(C(=O)O)c3ccccc3n2)cc1,0.33 °C
13,O=C(NC1CCCCC1)c1cccc(COc2ccc3ccccc3c2)c1,0.63 °C
14,O=C(NCc1ccc(Cl)c(Cl)c1)c1ccc(Br)cc1,inactive: -0.13 °C
15,N#Cc1cccc(NC(=O)c2cc3ccccc3o2)c1,0.32 °C
16,Cc1cn2cc(-c3cccc(Cl)c3)nc2s1,0.25 °C
17,O=C(Nc1ccccc1-c1nc2ccccc2[nH]1)NC1CCCCC1,0.67 °C
18,O=C(CC(c1ccccc1)c1cc(Br)ccc1O)NC1CCCCC1 (stereo not drawn),0.11 °C
19,CCOc1ccc(C2c3[nH]c4ccccc4c3CCN2C(=O)Cn2cncn2)cc1 (stereo not drawn),0.18 °C
20,O=c1cc(O)c2sc3nc(-c4ccco4)cc(C(F)(F)F)c3c2[nH]1,0.53 °C
21,Cc1c(C(=O)Nc2sc(C(C)C)cc2C(N)=O)oc2ccccc12,0.13 °C
22,Cc1[nH]n2c(=O)cc(-c3ccccc3)nc2c1-c1ccc(F)cc1,active: 1.5 °C
23,O=C(Nc1nccs1)c1ccccc1OCc1ccccc1,0.37 °C

# Some of these compounds in order of length of the SMILES, rising.
row,SMILES,thermal shift dTm
2,CC(NC(=O)N1c2ccccc2Sc2ccccc21)c1ccccc1 (stereo not drawn),inactive: -0.03 °C
19,CCOc1ccc(C2c3[nH]c4ccccc4c3CCN2C(=O)Cn2cncn2)cc1 (stereo not drawn),0.18 °C
1,Cc1ccc(NS(=O)(=O)c2cccc(C(=O)Nc3ccccc3C(=O)O)c2)cc1,active: 1.46 °C

# Following part:

row,SMILES,thermal shift dTm
1,CC(C)C(=O)Nc1cccc(C(=O)Nc2cccc(O)c2)c1,0.57 °C
2,S=C(Nc1ccc2nc(-c3ccco3)c(-c3ccco3)nc2c1)N1CCCC1,inactive: -0.45 °C
3,COc1ccc(-c2cnn3c(N)c(-c4ccccc4)cnc23)cc1,0.25 °C
4,CCCOc1ccc(NC(=O)CSc2nnc(N)s2)cc1,inactive: -0.15 °C
5,O=C(Nc1ccc(-c2noc(COc3ccccc3)n2)cc1)c1ccc(F)cc1,inactive: -0.09 °C
6,COC(=O)c1ccc(COC(=O)c2cc(=O)[nH]c3ccccc23)cc1,0.63 °C
7,COc1ccc(NC(=O)Nc2ccc(C(C)=O)cc2)c(C)c1,active: 2.14 °C
8,CCCc1cc(=O)[nH]c(SCC(=O)Nc2nc(-c3ccccc3)cs2)n1,active: 1.07 °C
9,CC(=O)c1cccc(NC(=O)Nc2cc(C(F)(F)F)ccc2F)c1,inactive: -0.7 °C
10,CN(C)c1nc(N/N=C/c2ccc(O)cc2)nc(Nc2ccc(F)cc2)n1,inactive: -0.09 °C
11,CCC(C)NC(=O)c1ccc(NC(=O)Nc2ccccc2)cc1 (stereo not drawn),active: 1.25 °C
12,Cc1cc(NC(=O)/C=C/c2ccco2)ccc1Br,0.54 °C
13,Cc1nc2c(-c3ccccc3)c[nH]n2c(=O)c1Cl,0.18 °C
14,CCCn1c(=O)[nH]c(=O)c2c(-c3cccc4ccccc34)ccnc21,0.25 °C
15,Cc1nc(SCc2nc(-c3ccccc3)no2)[nH]c(=O)c1Cc1ccccc1,0.11 °C
16,COc1ccc(CCCC(=O)Nc2ccc(F)cc2)cc1,0.15 °C
17,CCc1cc(-c2n[nH]c(C)c2Oc2ccc(Cl)cc2)c(O)cc1OC,0.11 °C
18,CCOC(=O)c1c(NC(=O)N(CCO)Cc2ccccc2)sc2c1CCC2,0.06 °C
19,COc1ccc(NC(=O)Nc2ccc(F)c(F)c2)c(OC)c1,0.47 °C
20,Clc1ccc(Nc2nc(NCc3ccco3)c3ccccc3n2)cc1,0.01 °C
21,Cc1cccc(N2C(=O)N(c3cccc(Cl)c3)C3CS(=O)(=O)CC32)c1C (stereo not drawn),0.16 °C
22,CC(=O)Oc1ccc2nc(-c3ccc(Cl)cc3Cl)oc(=O)c2c1,0.3 °C
